The values that follow come from US20020150993A1 (Genentech, published 2002).

In experiment [1] the target is soluble DNA19355 polypeptide (ECD, His10-tagged, 125I-labeled) (human). Kind of experiment: summary of the co-precipitation and FACS assays. (Flow cytometry measures light scatter and fluorescence of single cells or particles in a stream.)
The target is the same in experiment [2]. In words: co-precipitation with protein A-sepharose, SDS-PAGE, autoradiography.

No constants are given. Whether binding was seen depends on the method and setting. In cells and extracts the contact can be indirect. Some results given as binding are weak or reduced against the parent protein; the word gives no strength.

B1: PRO364-IgG (PRO364 extracellular domain immunoadhesin) (Fc fusion)
chain: QRPTGGPGCGPGRLLLGTGTDARCCRVHTTRCCRDYPGEECCSEWDCMCVQPEFHCGDPCCTTCRHHPCPPGQGVQSQGKFSFGFQCIDCASGTFSGGHEGHCKPWTDCTQFGFLTVFPGNKTHNAVCVPGSPPAE
notes: Expressed in insect cells with Baculovirus; also called PRO364 immunoadhesin; PRO364 ECD C-terminus IgG-Fc tagged form; not shown: IgG Fc fused at the C-terminus
As for B1, the binding entry in experiment [1] and in experiment [2] was “binds” each time.
